Data as given in PubChem BioAssay AID1508588 (Peter MacCallum Cancer Centre, 2020)

Aim: 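Knock-downs boosting vemurafenib effects on melanoma cell growth or lactate release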 (primary screen)
Cells: human WM266.4 melanoma cells (BRAF V600 mutant)
Reagent: siRNA pool against human genes, 40 nM
Time to read-out: 96 h from transfection to read-out
Treatment: vemurafenib 300 nM (about IC25), added 48 h after transfection, for 48 h; comparison arm got DMSO vehicle only
Measurement: 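Cell gain (DAPI nuclei at end minus before drug, mean of two replicates) and medium lactate by absorbance per cell, both as ratio to non-targeting siRNA, also grouped into fold-change classes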
Reading the numbers: cell gain with vemurafenib: higher = more cell gain than with non-targeting siRNA; lactate per cell with vemurafenib: higher = more lactate made per cell
Hit rule: 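Enhancement is called by pairing each knock-down's vehicle-arm and drug-arm fold-change classes for viability or glycolysis; which class combinations qualify is not given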
Calls: active = enhances vemurafenib effect; inactive = no enhancement seen
Here is a random part of about 18,000 deposited reagents. 790 of all reagents (4.4%) count as active. 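Calls rest on a combination of fold-change classes in drug and vehicle arms, not all shown here.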

gene symbol | cell gain with vemurafenib | lactate per cell with vemurafenib | Outcome
ZNF180 | 0.72 | 0.52 | inactive
RPF1 | 0.32 | 0.75 | inactive
ABCA1 | 0.89 | 0.94 | inactive
KDELR3 | 0.41 | 0.57 | inactive
HOXA2 | 0.54 | 0.57 | inactive
RAB35 | 0.68 | 0.7 | inactive
FANCG | 1.04 | 0.94 | inactive
TRIM68 | 0.75 | 0.74 | inactive
LDLRAP1 | 0.97 | 0.94 | inactive
LHFPL1 | 1.16 | 0.7 | inactive
RASSF1 | 0.95 | 0.62 | inactive
LHPP | 0.22 | 0.9 | inactive
PID1 | 0.73 | 0.87 | inactive
RPAP3 | 0.15 | 2.6 | inactive
DOCK9 | 0.28 | 1.96 | inactive
CRHR1 | 0.42 | 0.66 | active
SETD6 | 0.61 | 1.71 | inactive
PDLIM3 | -0.02 | 3.34 | inactive
EGLN3 | 0.28 | 1.35 | inactive
AGRP | 0.34 | 0.78 | inactive
NIM1K | 0.95 | 0.5 | inactive
ESM1 | 0.85 | 0.74 | inactive
RWDD2A | 0.55 | 2.16 | inactive
CPLX2 | 0.48 | 1.15 | inactive
SMC4 | 0.39 | 1.03 | inactive
CCDC116 | 0.24 | 2.15 | inactive
TFAP2D | 0.51 | 1.03 | inactive
NOL3 | 0.43 | 1.23 | inactive
SF3A3 | 0.23 | 1.31 | inactive
MMP8 | 1 | 0.89 | inactive
CATIP | 1.11 | 0.66 | inactive
CCDC24 | 0.52 | 0.57 | inactive

Continued, starting with the last 5 of the part before.
gene symbol | cell gain with vemurafenib | lactate per cell with vemurafenib | Outcome
NOL3 | 0.43 | 1.23 | inactive
SF3A3 | 0.23 | 1.31 | inactive
MMP8 | 1 | 0.89 | inactive
CATIP | 1.11 | 0.66 | inactive
CCDC24 | 0.52 | 0.57 | inactive
PRR5-ARHGAP8 | 1.11 | 1.78 | inactive
HECTD1 | 0.23 | 0.64 | inactive
MAU2 | 0.17 | 2.02 | inactive
C5orf22 | 0.58 | 0.2 | active
MRPS6 | 0.73 | 0.84 | inactive
KCNH4 | 0.77 | 0.77 | inactive
ZNF74 | 0.89 | 0.96 | inactive
XPR1 | 1.18 | 1.02 | inactive
KLF2 | 0.59 | 1.36 | inactive
LHX3 | 0.53 | 0.66 | inactive
PMS2P5 | 0.83 | 0.96 | inactive
ADAMTSL4 | 0.45 | 0.81 | inactive
SPRR1B | 0.17 | 2.38 | inactive
MED25 | 0.43 | 2.82 | inactive
EIF5 | 0.48 | 1.43 | inactive
ADRA2A | 0.99 | 0.64 | inactive
OR1G1 | 0.29 | 0.97 | inactive
KIFC2 | 0.19 | 0.76 | inactive
TMEM259 | 0.92 | 0.63 | inactive
IL36B | 0.76 | 1.32 | inactive
SPATA6L | 0.48 | 1.09 | inactive
SAA4 | 0.7 | 0.6 | inactive
NSUN3 | 1.01 | 0.84 | inactive
PSMB10 | 0.48 | 1.53 | inactive
ZNF567 | 0.19 | 0.72 | inactive
MANBAL | 0.57 | 1.34 | inactive
OR52A1 | 0.74 | 1.46 | inactive
AQP5 | 0.8 | 0.92 | inactive
VTA1 | 0.55 | 0.54 | inactive
PIK3CA | 0.61 | 0.9 | inactive
NAALADL1 | 0.52 | 0.86 | inactive
ATP6V1H | 0.95 | 1.15 | inactive
CTU2 | 0.37 | 0.66 | inactive
H1-0 | 0.81 | 0.72 | inactive
DEFB123 | 0.6 | 1.49 | inactive
NFKBIZ | 0.54 | 1.3 | inactive
DSC2 | 1 | 0.32 | inactive
ARL4C | 0.94 | 0.96 | inactive
TSPAN9 | 0.84 | 1.08 | inactive
XRCC6 | 0.41 | 1.16 | inactive
VIRMA | 0.8 | 1.32 | inactive
ZBTB46 | 0.39 | 0.41 | inactive
CMC1 | 0.25 | 0.92 | inactive
CENPI | 0.43 | 0.73 | inactive
MYL6 | 0.86 | 0.74 | inactive
DYNC1LI1 | 0.72 | 1.18 | inactive
CCER1 | 0.86 | 1 | inactive
TEX19 | 0.35 | 1.1 | inactive
IL11 | 0.45 | 0.8 | inactive
CATSPER1 | 0.84 | 0.74 | inactive
CHMP1B | 0.5 | 0.82 | inactive
LARP6 | 0.4 | 2.57 | inactive
